Results reported in PMC7066169.
Results are given in words; binding and its absence hold for the method and conditions named. In cells and extracts the contact can be indirect. Some entries that bind do so weakly or less than the wild type.

Sequences of proteins named here, by UniProt entry; tags and fusion partners are left off. A change or cut given only in a name is not applied to a line headed by its entry. A line that says so, or that is headed by a name, gives the form on record, which may keep a tag or linker.
UniProt Q9JHD1: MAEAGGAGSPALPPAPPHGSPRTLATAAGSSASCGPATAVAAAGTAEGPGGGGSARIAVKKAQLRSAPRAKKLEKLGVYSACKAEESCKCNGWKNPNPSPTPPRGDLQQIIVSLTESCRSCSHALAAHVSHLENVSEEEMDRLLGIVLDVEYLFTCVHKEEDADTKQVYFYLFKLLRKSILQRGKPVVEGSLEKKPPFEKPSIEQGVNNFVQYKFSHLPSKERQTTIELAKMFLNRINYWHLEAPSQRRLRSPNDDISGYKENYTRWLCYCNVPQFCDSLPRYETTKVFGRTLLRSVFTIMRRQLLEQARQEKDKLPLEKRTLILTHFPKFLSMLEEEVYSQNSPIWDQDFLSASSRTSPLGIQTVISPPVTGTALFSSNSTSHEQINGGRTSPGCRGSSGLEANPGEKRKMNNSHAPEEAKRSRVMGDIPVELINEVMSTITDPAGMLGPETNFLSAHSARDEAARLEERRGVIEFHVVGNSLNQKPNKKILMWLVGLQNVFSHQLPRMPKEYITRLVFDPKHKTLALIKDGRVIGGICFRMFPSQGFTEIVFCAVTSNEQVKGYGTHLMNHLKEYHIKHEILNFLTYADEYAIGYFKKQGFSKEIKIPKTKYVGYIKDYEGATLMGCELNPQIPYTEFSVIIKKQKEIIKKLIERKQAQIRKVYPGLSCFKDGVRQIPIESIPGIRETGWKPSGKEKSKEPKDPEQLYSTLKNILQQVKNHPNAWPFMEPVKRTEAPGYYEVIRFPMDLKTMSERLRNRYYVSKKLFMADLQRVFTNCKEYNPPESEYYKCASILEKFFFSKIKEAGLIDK
UniProt P02340: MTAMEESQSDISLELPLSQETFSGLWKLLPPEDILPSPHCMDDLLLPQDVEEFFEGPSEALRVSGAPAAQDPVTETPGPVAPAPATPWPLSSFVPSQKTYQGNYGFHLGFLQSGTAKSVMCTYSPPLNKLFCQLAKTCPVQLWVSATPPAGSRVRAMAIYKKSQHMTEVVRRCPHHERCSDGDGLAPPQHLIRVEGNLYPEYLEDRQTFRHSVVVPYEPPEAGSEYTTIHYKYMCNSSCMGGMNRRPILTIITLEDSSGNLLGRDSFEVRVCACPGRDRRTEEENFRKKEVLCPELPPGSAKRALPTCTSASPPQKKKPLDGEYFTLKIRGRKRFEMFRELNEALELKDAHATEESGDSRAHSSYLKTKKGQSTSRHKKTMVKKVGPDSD
Nuclear myosin 1 (mouse (endogenous in MEFs)) (Q9WTI7-3, form named): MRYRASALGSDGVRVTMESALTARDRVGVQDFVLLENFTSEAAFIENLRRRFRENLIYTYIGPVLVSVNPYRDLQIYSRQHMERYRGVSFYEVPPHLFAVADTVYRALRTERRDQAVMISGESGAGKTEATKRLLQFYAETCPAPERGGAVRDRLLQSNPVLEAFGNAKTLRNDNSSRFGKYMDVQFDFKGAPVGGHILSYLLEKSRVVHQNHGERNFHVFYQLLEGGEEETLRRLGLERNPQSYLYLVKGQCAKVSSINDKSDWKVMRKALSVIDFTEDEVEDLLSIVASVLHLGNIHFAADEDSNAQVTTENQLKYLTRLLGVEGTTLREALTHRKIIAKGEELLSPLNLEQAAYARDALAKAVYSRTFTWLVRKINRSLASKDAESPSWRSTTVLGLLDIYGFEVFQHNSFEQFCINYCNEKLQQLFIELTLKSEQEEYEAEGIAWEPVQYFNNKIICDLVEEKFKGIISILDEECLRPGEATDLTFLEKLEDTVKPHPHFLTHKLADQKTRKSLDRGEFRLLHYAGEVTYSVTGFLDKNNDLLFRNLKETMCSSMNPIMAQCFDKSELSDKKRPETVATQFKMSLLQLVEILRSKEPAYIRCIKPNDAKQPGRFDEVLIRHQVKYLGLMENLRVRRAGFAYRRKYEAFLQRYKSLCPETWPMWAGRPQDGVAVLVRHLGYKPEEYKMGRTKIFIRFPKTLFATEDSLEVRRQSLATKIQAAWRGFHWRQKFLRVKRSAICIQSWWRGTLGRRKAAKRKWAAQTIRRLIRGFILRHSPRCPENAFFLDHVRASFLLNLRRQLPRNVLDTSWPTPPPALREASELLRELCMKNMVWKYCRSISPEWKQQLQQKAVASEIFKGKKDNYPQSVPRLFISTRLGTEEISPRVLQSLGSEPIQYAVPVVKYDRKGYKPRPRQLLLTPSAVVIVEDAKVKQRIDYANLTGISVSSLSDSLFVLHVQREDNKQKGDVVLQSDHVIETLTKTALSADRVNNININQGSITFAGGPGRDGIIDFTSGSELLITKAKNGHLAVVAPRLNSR

Tests used:
Test in all cases: co-IP; endogenous proteins from MEFs treated with 10 µM etoposide for 2 h then 10 h in DMEM (untreated cells also tested); NP-40 buffer lysate (2 mg) with 10 µg antibody to NM1, p53-K370, PCAF or rabbit IgG overnight at 4 °C; protein A/G magnetic beads; washes in TBST with 0.1 M NaCl; western blot
[1] = target: PCAF (mouse (endogenous in MEFs)) (UniProt Q9JHD1)
[2] = target: p53 (mouse (endogenous in MEFs)) (UniProt P02340)
[3] = target: Nuclear myosin 1 (mouse (endogenous in MEFs)) (UniProt Q9WTI7)

binding [1] | binding [2] | binding [3] | Substance
binds | binds |  | Nuclear myosin 1 (from UniProt Q9WTI7-3 1-1044)
binds |  | binds | p53 (from UniProt P02340 1-390)
